# Data reported in PubChem BioAssay AID504467 (National Center for Advancing Translational Sciences (NCATS), 2011).
# The campaign covered roughly 330,000 compounds. About 7,700 (2.3%) were called active. Inconclusive results, whose numbers are uncertain, are shown with a selection of clear calls. Calls follow the shape of the dose curve; as a rule, active = well fitted inhibition curve with a large enough effect; inconclusive = small, poorly fitted or top-dose-only effect, or effect the other way; inactive = flat fitted curve, though single readings scatter. Potencies beside an inconclusive call are fits to weak or partial responses and may not hold up.
# Assay: qHTS screen for small molecules that inhibit ELG1-dependent DNA repair in human embryonic kidney (HEK293T) cells expressing luciferase-tagged ELG1; also: nearly all actives have a fitted effect of over 55% in size
# Conditions: HEK293T ELG1-luciferase reporter, luminescence, 16 h, DNA damage induced by 5-fluorouridine; activity change, negative = inhibition: at 46.1 µM (top of the series)
# In short: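 In this reporter screen, reduction of luminescence relative to DMSO vehicle indicated activity. Compounds and 5-fluorouridine were added together to 2,000 cells per well, incubated for 16 hr at 37 °C, then developed with ONE-Glo.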
# % is scaled to controls: 0 for no effect and ±100 for the full control effect; potency is read from the fitted curve at half-maximal effect.
SMILES,Potency,"activity change, negative = inhibition"
Cc1cccc(OCCCn2c(=O)sc3ccccc32)c1,"inconclusive: 20.6 µM [activator, single point]",
O=C(Nc1cccc(Cl)c1)c1ccc2c(c1)OCCO2,"inconclusive: 3.66 µM [activator, partial curve]",
CC1(NC(=O)/C=C/c2nc3ccccc3s2)CCS(=O)(=O)C1 (stereo unspecified),"inconclusive: 23.1 µM [activator, single point]",
Cc1ccc(C(=O)c2cc(C)sc2NC(=O)CN2CCN(C(=O)c3ccco3)CC2)cc1,"inconclusive: 25.9 µM [inhibitor, single point]",
N#Cc1c(SCC(N)=O)nc(-c2ccccc2)c2c1CCCC2,"inconclusive: 25.9 µM [inhibitor, partial curve, poor fit]",
Cc1ccc(C(=O)O)c(C(=O)Nc2nc3ccccc3s2)c1,"inconclusive: 20.6 µM [activator, single point]",
COc1ccc(C(=O)N2N=C(c3cccs3)CC2c2ccccc2O)cc1 (stereo unspecified),"inconclusive: 16.4 µM [inhibitor, single point]",
COc1ccc(OC)c(CCNC(=O)Cn2ccc3cc(S(=O)(=O)N4CCCC4)ccc32)c1,"inconclusive: 14.6 µM [inhibitor, partial curve]",
Cc1nc(N(CCO)C2CCCCC2)c2nnn(Cc3ccccc3)c2n1,"inconclusive: 25.9 µM [inhibitor, single point]",
O=C(O)/C=C/c1ccc2noc(-c3ccccc3)c2c1,"inconclusive: 32.6 µM [inhibitor, single point]",
C[C@H](CO)N1C[C@H](C)[C@@H](CN(C)Cc2ccc3c(c2)OCO3)Oc2ccc(NC(=O)Cn3cnnn3)cc2C1=O,"inconclusive: 32.6 µM [activator, partial curve, poor fit]",
Nc1nc(-c2cccc(Br)c2)cs1,"inconclusive: 20.6 µM [activator, single point]",
COc1ccc(OC)c(S(=O)(=O)NC2CCCCNC2=O)c1 (stereo unspecified),,inactive: -11.7%
COc1ccc(C(=O)Nc2cc(C(C)=O)c(C)oc2=O)cc1,"inconclusive: 20.6 µM [activator, partial curve]",
CCN(CC)S(=O)(=O)c1cccc(N=Nc2c(O)c3ccccc3oc2=O)c1,"inconclusive: 29.1 µM [inhibitor, single point]",
COC(=O)CNC(=O)CCc1nnc(C2(c3ccc(Cl)cc3)CCC2)o1,"inconclusive: 16.4 µM [activator, partial curve]",
O=C(CN1C(=O)S/C(=C\C=C\c2ccccc2)C1=O)Nc1cccc(O)c1,"inconclusive: 7.31 µM [activator, partial curve]",
CC(=O)N1N=C(c2cccc([N+](=O)[O-])c2)OC1(C)CC(=O)Nc1ccccc1 (stereo unspecified),,inactive: -15.3%
COc1ccc(NC(=O)CO/N=C2/CCCc3nonc32)c(OC)c1,,inactive: -27.2%
O=C1COc2ccc(S(=O)(=O)N3CCC(C(=O)NCc4ccccc4)CC3)cc2N1,,inactive: 15.9%
COc1ccc(NC(=O)c2ccco2)c(OC)c1,"inconclusive: 20.6 µM [activator, partial curve]",

SMILES,Potency,"activity change, negative = inhibition"
COCC(C)n1c(C)cc(C(=O)COC(=O)c2ccc(N3CCCC3=O)cc2)c1C (stereo unspecified),"inconclusive: 23.1 µM [inhibitor, partial curve, poor fit]",
CC(Sc1nc(N)cc(N)n1)C(=O)NCCC1=CCCCC1 (stereo unspecified),"inconclusive: 20.6 µM [activator, partial curve, poor fit]",
CCN(CCCn1c(SCC#N)nc2ccccc2c1=O)c1ccccc1,"inconclusive: 29.1 µM [inhibitor, single point]",
Cc1ccc(C)c(NC(=O)COc2cccc3c2CCN(Cc2ccccc2)C3=O)c1,"inconclusive: 18.4 µM [inhibitor, single point]",
O=C(NCC(=O)N1CCCCCC1)c1ccc(OC(F)F)cc1,"inconclusive: 0.291 µM [activator, full curve, poor fit]",
CCCCNC(=O)C1c2cc(OC)c(OC)cc2C(=O)N(C)C1c1ccc(OC)cc1 (stereo unspecified),"inconclusive: 8.2 µM [inhibitor, single point]",
CC(=O)c1c(N2CCCCC2)nc(=O)n(-c2ccccc2)c1C,"inconclusive: 32.6 µM [activator, partial curve, poor fit]",
Cc1cc(NC(=O)c2ccc([N+](=O)[O-])o2)ccc1NC(=O)c1ccco1,"inconclusive: 20.6 µM [inhibitor, single point]",
Cc1cc(N)n2nc(-c3ccccc3)cc2n1,"inconclusive: 2.59 µM [activator, full curve]",
CCOC(=O)N1CCN(c2c(NCCN3CCN(c4ccccc4F)CC3)c(=O)c2=O)CC1,"inconclusive: 29.1 µM [activator, single point]",
Cn1c(-c2ccccc2)c(C(=O)CCl)c2ccccc21,"inconclusive: 29.1 µM [inhibitor, single point]",
CC(=O)c1ccc(OCc2cc(C(=O)N3CCC(c4ccncc4)CC3)no2)cc1,,inactive: 0.381%
O=C1CCS/C(=N\N=C\c2ccc(Cl)cc2Cl)N1,"inconclusive: 16.4 µM [activator, partial curve]",
O[C@H]1c2ccccc2[C@H](Cc2cncs2)[C@@H]1Br,,inconclusive: 35.9% [activator]
CC1CC(=O)N(CC(=O)NCc2ccccc2)c2ccccc2S1(=O)=O (stereo unspecified),,inactive: 16.2%
COc1ccc(C2C3=C(CC(C)(C)CC3=O)Oc3ncn(Cc4ccccc4)c(=N)c32)cc1 (stereo unspecified),"inconclusive: 20.6 µM [inhibitor, partial curve, poor fit]",
CCCC(=O)c1ccc(N2CCCCC2)c(F)c1,"inconclusive: 20.6 µM [activator, single point]",
NC(=O)C1CC(=O)N(c2ccc(OCC(=O)Nc3ccc(F)cc3)cc2)C1 (stereo unspecified),,inactive: 21.4%
O=C(c1ccc(CS(=O)(=O)c2c(Cl)cccc2Cl)o1)N1CCN(c2ccccn2)CC1,"inconclusive: 29.1 µM [inhibitor, single point]",
COc1cc2c(cc1OC)CN(c1nc(CN3CCCC3)nc3sc(C)c(C)c13)CC2,"inconclusive: 29.1 µM [inhibitor, single point]",

# Molecules listed so far that have bromine:
SMILES,Potency,"activity change, negative = inhibition"
Nc1nc(-c2cccc(Br)c2)cs1,"inconclusive: 20.6 µM [activator, single point]",
O[C@H]1c2ccccc2[C@H](Cc2cncs2)[C@@H]1Br,,inconclusive: 35.9% [activator]
